Results as given in the supplement of paper PMC12067093, “Discovery and optimisation of a covalent ligand for TRIM25 and its application to targeted protein ubiquitination” (Chemical Science, 2025).
The other results are listed elsewhere or left out.

Compound: CC1Cc2ccccc2N1C(=O)C1CCCN(C1)C(=O)CCl (mixture of isomers) [TRIM25 ligand 11 (diastereomer mixture)]
Assay: probe-labelled cysteine peptide fold change vs DMSO (competition) (log2 fold change); higher = less target engagement (more negative = stronger competition)
Conditions: THP-1, incubation time: 4 h
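Further: competitive chemoproteomic profiling in live THP-1 cells with an iodoacetamide desthiobiotin (IA-DTB) probe, comparing probe-labelled peptide intensities in compound-treated cells against DMSO-treated controls.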

Target | probe-labelled cysteine peptide fold change (10 µM) | probe-labelled cysteine peptide fold change (50 µM)
MOV10_Q9HCE1_553+564_AHILACAPSNSGADLLCQR (UniProt Q9HCE1) | 0.0454 | 0.0277
MIA3_Q5JRA6_1513_AGLEDECK (UniProt Q5JRA6) | 0.0174 | –
MMAA_Q8IVH4_184_LSVLAVDPSSCTSGGSLLGDK (UniProt Q8IVH4) | 0.477 | -0.0496
MPC2_O95563_54_WGLVCAGLADMARPAEK (UniProt O95563) | -0.137 | -0.307
MPHOSPH8_Q99549_99_GYTSDDDTWEPEIHLEDCK (UniProt Q99549) | 0.111 | 0.306
MIF4GD_A9UHW6_150_EEEVDCLVLQLHR (UniProt A9UHW6) | 0.222 | –
MRC2_Q9UBG0_950_CLTALPYICK (UniProt Q9UBG0) | 0.0157 | 0.223
MMS19_Q96T76_750_ELLELSCCHSCPFSSTAAAK (UniProt Q96T76) | 0.152 | -0.12
MMTAG2_Q9BU76_179_AEDQTESSCESHR (UniProt Q9BU76) | 0.0239 | -0.0101
MOV10_Q9HCE1_650_LVSAQFPIDHFTHIFIDEAGHCMEPESLVAIAGLMEVK (UniProt Q9HCE1) | 0.00257 | –
MORC3_Q14149_307_ITFGFNCR (UniProt Q14149) | -0.111 | 0.121
MKI67_P46013_1479_ELFQTPVCTDKPTTHEK (UniProt P46013) | -0.193 | -0.454
MPHOSPH8_Q99549_753_LALLEPVFPIACHR (UniProt Q99549) | 0.177 | 0.242
MLH1_P40692_77_LIQIQDNGTGIRKEDLDIVCER (UniProt P40692) | -0.198 | -0.0621
MRI1_Q9BV20_199_LEHAFCTETRPYNQGAR (UniProt Q9BV20) | 0.00492 | -0.0616
MINK1_Q8N4C8_129_EDCIAYICR (UniProt Q8N4C8) | 0.00524 | –
MGST3_O14880_56_YKVEYPIMYSTDPENGHIFNCIQR (UniProt O14880) | 0.0746 | -0.113
MPP2_Q14168_256_CHFDYDPAR (UniProt Q14168) | 0.102 | 0.0369
MRPL38_Q96DV4_290_QDQPIDFSEDARPSPCYQLAQR (UniProt Q96DV4) | -0.028 | –
MOSPD2_Q8NHP6_471_TSEDICLQLSR (UniProt Q8NHP6) | 0.0227 | -0.24
MORC3_Q14149_744_ETCHQSTETDAVFLLESINGK (UniProt Q14149) | 0.143 | -0.605
MRPL14_Q6P1L8_90_ALIVGHCMPGPR (UniProt Q6P1L8) | -0.355 | -0.293

Target | probe-labelled cysteine peptide fold change (10 µM) | probe-labelled cysteine peptide fold change (50 µM)
MICAL2_O94851_552_SGLALCAIIHR (UniProt O94851) | -0.285 | -0.0658
MNAT1_P51948_49_GAGNCPECGTPLR (UniProt P51948) | 0.159 | 0.176
MKRN2_Q9H000_262_FGILSNCNHTYCLSCIR (UniProt Q9H000) | -0.0498 | 0.0932
MGST3_O14880_56_VEYPIMYSTDPENGHIFNCIQR (UniProt O14880) | -0.116 | -0.173
MORC2_Q9Y6X9_127_KEDTMTCLFLSR (UniProt Q9Y6X9) | 0.17 | 0.232
MRPL3_P09001_78_LCPLKDEPWPIHPWEPGSFR (UniProt P09001) | -0.275 | 0.0373
MKI67_P46013_773_EQPQLTSTCHIAISNSENLLGK (UniProt P46013) | 0.234 | -0.0412
MRPL37_Q9BZE1_366_VFHFLVFQLNTTDLDCNEGVK (UniProt Q9BZE1) | -0.305 | -0.0534
MOB4_Q9Y3A3_78_QFCLELNGLAVK (UniProt Q9Y3A3) | -0.0422 | 0.0286
MRPL21_Q7Z2W9_203_INSIEIAPCLL (UniProt Q7Z2W9) | 0.105 | -0.189
MICAL1_Q8TDZ2_711_LCVNGHFFHR (UniProt Q8TDZ2) | -0.0577 | 0.00322
MOCOS_Q96EN8_635_LCLIQPFIDLR (UniProt Q96EN8) | 0.0357 | 0.0538
MIS18A_Q9NYP9_85_AQLEEEAAAAEERPLVFLCSGCR (UniProt Q9NYP9) | -0.0813 | –
MIPEP_Q99797_142_EAAEEACR (UniProt Q99797) | 0.115 | 0.0923
MORF4L1_Q9UBU8_19_VLCFHGPLLYEAK (UniProt Q9UBU8) | -0.00468 | 0.337
MORC2_Q9Y6X9_499+502_AMEIPTTIQCDLCLK (UniProt Q9Y6X9) | -0.152 | 0.00238
MRPL36_Q9P0J6_92_WYVYCK (UniProt Q9P0J6) | 0.00972 | 0.0844
MRPL45_Q9BRJ2_151_DIFIEAHLCLNNSDHDR (UniProt Q9BRJ2) | -0.648 | -0.159
MPG_P29372_222_LCQALAINK (UniProt P29372) | -0.19 | -0.0993
MRPL37_Q9BZE1_203_RICVQNSTFSATWNR (UniProt Q9BZE1) | 0.0617 | -0.119
MMP14_P50281_574_RLLYCQR (UniProt P50281) | -0.106 | -0.136
MKI67_P46013_2706_IPCESPPLEVVDTTASTK (UniProt P46013) | -0.107 | -0.0987

Target | probe-labelled cysteine peptide fold change (10 µM) | probe-labelled cysteine peptide fold change (50 µM)
MRGBP_Q9NV56_59_HFHMICIR (UniProt Q9NV56) | -0.144 | -0.0698
MKNK1_Q9BUB5_101_EVETLYQCQGNK (UniProt Q9BUB5) | 0.0574 | 0.0595
MNAT1_P51948_46+49_GAGNCPECGTPLR (UniProt P51948) | 0.0971 | -0.057
MRGBP_Q9NV56_38_GPGEAATSPAEETVVWSPEVEVCLFHAMLGHKPVGVNR (UniProt Q9NV56) | -0.0232 | -0.11
MKLN1_Q9UL63_446_LLREDSCNAGPEDIQSR (UniProt Q9UL63) | 0.0545 | 0.179
MKI67_P46013_3014_CMPAPEEIVEELPASK (UniProt P46013) | -0.0999 | -0.0562
MORF4L2_Q15014_165_NVDAILEEYANCKK (UniProt Q15014) | -0.228 | -0.146
MPP6_Q9NZW5_222_CHFDYNPYNDNLIPCK (UniProt Q9NZW5) | -0.00612 | 0.127
MLH1_P40692_494_EMTAACTPR (UniProt P40692) | -0.0604 | -0.19
MIB1_Q86YT6_103_CAECTNYDLCTVCYHGDK (UniProt Q86YT6) | 0.0792 | -0.0222
MMTAG2_Q9BU76_103_EDFAEVCKR (UniProt Q9BU76) | -0.191 | -0.324
MMS19_Q96T76_331_VEAEGLAALHSLTACLSR (UniProt Q96T76) | 0.0372 | 0.0651
MKI67_P46013_3229_CAENPK (UniProt P46013) | -0.0831 | -0.221
MICAL2_O94851_478_YPNLNSHCVRPHQVK (UniProt O94851) | 0.0393 | -0.153
MLST8_Q9BVC4_107_WMYTGGEDCTAR (UniProt Q9BVC4) | 0.0109 | -0.0842
MMTAG2_Q9BU76_179_AEDQTESSCESHRK (UniProt Q9BU76) | 0.0799 | -0.12
MNDA_P41218_61_KFQGVACLDK (UniProt P41218) | 0.0354 | -0.0884
MPI_P34949_11_VFPLSCAVQQYAWGK (UniProt P34949) | -0.0964 | -0.055
MRPL37_Q9BZE1_177_RETYCPVIVDNLIQLCK (UniProt Q9BZE1) | 0.0168 | -0.11
MKLN1_Q9UL63_460_IGHCMLFHSK (UniProt Q9UL63) | -0.0053 | -0.00994
MILR1_Q7Z6M3_38_TNEFPSPCLDSK (UniProt Q7Z6M3) | -0.148 | -0.275
MINDY2_Q8NBR6_79_SLPDSASPAGSPEVPGPCSSSAGLDLK (UniProt Q8NBR6) | 0.105 | -0.447

Target | probe-labelled cysteine peptide fold change (10 µM) | probe-labelled cysteine peptide fold change (50 µM)
MRPL2_Q5T653_213_AAGTCGVLLR (UniProt Q5T653) | -0.0351 | -0.00691
MGA_Q8IWI9_1146_KLEYTICETEPEQPVR (UniProt Q8IWI9) | -0.124 | -0.231
MKI67_P46013_1981_ITEVSCK (UniProt P46013) | -0.0568 | -0.02
MRPL35_Q9NZE8_150_EFVFCNK (UniProt Q9NZE8) | -0.085 | -0.192
MRPL33_O75394_29_MVSEAGTGFCFNTK (UniProt O75394) | -0.0739 | -0.084
MRPL45_Q9BRJ2_168_LHTLVTEHCFPDMTWDIK (UniProt Q9BRJ2) | 0.296 | 0.136
MINK1_Q8N4C8_269_FIDFIDTCLIK (UniProt Q8N4C8) | 0.068 | 0.162
MIB1_Q86YT6_462_RPDVDVNGQCAGHTAMQAASQNGHVDILK (UniProt Q86YT6) | 0.131 | -0.117
MICAL3_Q7RTP6_1760_SCPSTPSSGATVDSGK (UniProt Q7RTP6) | -0.144 | -0.198
MKLN1_Q9UL63_411_ILTCNGSVDDSR (UniProt Q9UL63) | 0.0272 | -0.0506
MRC2_Q9UBG0_521_AGQLSQGAAEEDHGCR (UniProt Q9UBG0) | -0.183 | -0.219
MICAL1_Q8TDZ2_87+95_CLVVGAGPCGLR (UniProt Q8TDZ2) | -0.147 | 0.1
MKI67_P46013_715_KPVGEVHSQFSTGHANSPCTIIIGK (UniProt P46013) | 0.0395 | -0.168
MRPL38_Q96DV4_321_KHQETMTPAGLSFFQCR (UniProt Q96DV4) | 0.00503 | 0.134
MON2_Q7Z3U7_212_SVSTLKPCAK (UniProt Q7Z3U7) | -0.0851 | -0.116
MOCS3_O95396_179_RYDVVADCSDNVPTR (UniProt O95396) | 0.00844 | 0.00588
MRC2_Q9UBG0_532_KGWTWHSPSCYWLGEDQVTYSEAR (UniProt Q9UBG0) | -0.0488 | -0.275
MNDA_P41218_385_LVCGSHSFIK (UniProt P41218) | 0.0242 | 0.129
MORC2_Q9Y6X9_502_AMEIPTTIQCDLCLK (UniProt Q9Y6X9) | 0.203 | 0.0321

Reformatted as tab-separated lines: part of the list above.
Target	probe-labelled cysteine peptide fold change (10 µM)	probe-labelled cysteine peptide fold change (50 µM)
MNDA_P41218_61_KFQGVACLDK (UniProt P41218)	0.0354	-0.0884
MPI_P34949_11_VFPLSCAVQQYAWGK (UniProt P34949)	-0.0964	-0.055
MRPL37_Q9BZE1_177_RETYCPVIVDNLIQLCK (UniProt Q9BZE1)	0.0168	-0.11
MKLN1_Q9UL63_460_IGHCMLFHSK (UniProt Q9UL63)	-0.0053	-0.00994
MILR1_Q7Z6M3_38_TNEFPSPCLDSK (UniProt Q7Z6M3)	-0.148	-0.275
MINDY2_Q8NBR6_79_SLPDSASPAGSPEVPGPCSSSAGLDLK (UniProt Q8NBR6)	0.105	-0.447
